Results as given in patent US20140288000A1 (University of California, published 2014).
These are yes or no findings as the source states them, for the method shown. Some entries that bind do so weakly or less than the wild type.

Sequences of proteins named here, by UniProt entry; tags and fusion partners are left off. Residues count along the entry.
UniProt P00747, residues 97-810: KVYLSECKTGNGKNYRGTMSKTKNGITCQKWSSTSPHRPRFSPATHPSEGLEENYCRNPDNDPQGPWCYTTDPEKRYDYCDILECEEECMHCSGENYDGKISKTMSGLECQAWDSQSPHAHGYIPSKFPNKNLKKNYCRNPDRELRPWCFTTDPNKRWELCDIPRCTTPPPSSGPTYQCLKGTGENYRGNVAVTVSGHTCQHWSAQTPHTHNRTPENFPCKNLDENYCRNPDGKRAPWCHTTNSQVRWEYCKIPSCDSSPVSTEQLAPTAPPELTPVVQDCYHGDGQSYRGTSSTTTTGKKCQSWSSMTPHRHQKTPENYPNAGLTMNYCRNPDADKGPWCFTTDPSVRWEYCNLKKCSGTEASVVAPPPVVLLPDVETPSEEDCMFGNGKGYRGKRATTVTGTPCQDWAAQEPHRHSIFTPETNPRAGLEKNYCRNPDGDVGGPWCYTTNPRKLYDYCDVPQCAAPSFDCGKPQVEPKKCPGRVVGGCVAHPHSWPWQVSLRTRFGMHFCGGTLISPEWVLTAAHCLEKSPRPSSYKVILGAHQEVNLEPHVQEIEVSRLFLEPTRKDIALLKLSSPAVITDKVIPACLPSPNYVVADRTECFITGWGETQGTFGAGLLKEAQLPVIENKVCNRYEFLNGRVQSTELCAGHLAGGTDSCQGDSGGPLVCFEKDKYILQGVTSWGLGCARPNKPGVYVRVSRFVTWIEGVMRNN

Target: human plasmin (human, UniProt P00747 97-810, limits assumed)
Assay: plasmin amidolytic activity assay with chromogenic substrate S-2251, inhibitor concentration varied

binding	Binder
binds	plasmin-inhibiting polypeptide comprising the amino acid sequence set forth in SEQ ID NO:5 (designed binder) NAEICLLPLDYGPCRARLLRYYYDRYTQSCRQFLYGGCEGNANNFYTWEACDDACWRIEK
binds	plasmin-inhibiting polypeptide comprising the amino acid sequence set forth in SEQ ID NO:3 (designed binder) NAEICLLPLDTGPCRARLLRYYYDRYTQSCRQFLYGGCEGNANNFYTWEACDDACWRIEK
